# Reference: PubChem BioAssay AID1259425 (University of Nebraska Medical Center, 2018)
# Purpose: 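Seek colon cancer weak points whose silencing resembles KSR1 loss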 (primary screen)
# Cell system: HCT116 human colon cancer cells
# Reagent: siRNA pool against human genes, 50 nM siRNA
# Detection: 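After 50 nM siRNA pool, branched-DNA assay measures six marker transcripts per well, minus blank, normalised to the geometric mean of two housekeeping transcripts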
# Direction: BNIP3L mRNA: higher = more BNIP3L transcript after knockdown; NDRG1 mRNA: higher = more NDRG1 transcript after knockdown; BNIP3 mRNA: higher = more BNIP3 transcript after knockdown; ALDOC mRNA: higher = more ALDOC transcript after knockdown; ACSL5 mRNA: higher = more ACSL5 transcript after knockdown
# Here is one part, drawn at random, of about 14,000 reagents. Not stated in the record: the time to read-out.
target,"BNIP3L mRNA, set 1","NDRG1 mRNA, set 1","BNIP3 mRNA, set 1","ALDOC mRNA, set 1","ACSL5 mRNA, set 1"
PRG4 (GeneID 10216),0.08,0.04,0.423,0.0198,0.0363
INMT (GeneID 11185),0.165,0.719,0.307,0.0362,0.396
HSD11B1 (GeneID 3290),0.0599,0.0633,0.252,0.0285,0.12
FBXO10 (GeneID 26267),0.0664,0.177,0.236,0.0212,0.121
ZC3HAV1 (GeneID 56829),0.0667,0.236,0.333,0.047,0.227
USP6NL (GeneID 9712),0.205,0.252,0.516,0.0607,0.143
TNFSF13 (GeneID 8741),0.0544,0.158,0.322,0.019,0.203
CEBPD (GeneID 1052),0.0513,0.232,0.413,0.0171,0.149
GFOD2 (GeneID 81577),0.0349,0.235,0.285,0.0254,0.198
CDHR5 (GeneID 53841),0.101,0.229,0.155,0.0119,0.12
ZNF112 (GeneID 7771),0.129,0.462,0.314,0.0286,0.0849
ADGB (GeneID 79747),0.0522,0.108,0.228,0.0445,0.0616
PSMD4 (GeneID 5710),0.107,0.134,0.34,0.0173,0.212
CPB2 (GeneID 1361),0.175,0.0925,0.314,0.0107,0.163
CSPP1 (GeneID 79848),0.0976,0.221,0.444,0.0369,0.145
CEP70 (GeneID 80321),0.183,0.24,0.295,0.0576,0.143
BIN3-IT1 (GeneID 80094),0.112,0.119,0.345,0.0335,0.146
UNC5B (GeneID 219699),0.0944,0.299,0.194,0.0176,0.183
RARS2 (GeneID 57038),0.246,0.247,0.532,0.0363,0.694
ERAP2 (GeneID 64167),0.0171,0.241,0.321,0.0198,0.294
PKNOX1 (GeneID 5316),0.042,0.0465,0.227,0.00376,0.228
NR5A1 (GeneID 2516),0.0625,0.211,0.318,0.0172,0.0873
HTR1E (GeneID 3354),0.0652,0.182,0.242,0.0192,0.0878
PPARG (GeneID 5468),0.0605,0.219,0.227,0.0445,0.156
KIR2DS3 (GeneID 3808),0.0731,0.342,0.287,0.00987,0.0671
ANO2 (GeneID 57101),0.0841,0.0872,0.175,0.0392,0.213
TIMM50 (GeneID 92609),0.101,0.111,0.279,0.0115,0.126
RFX2 (GeneID 5990),0.131,0.0351,0.272,0.00504,0.208
MTMR4 (GeneID 9110),0.0742,0.0334,0.264,0.0341,0.17
PLA2G15 (GeneID 23659),0.106,0.201,0.181,0.0385,0.139
FAU (GeneID 2197),0.0703,0.155,0.417,0.00878,0.109
GNLY (GeneID 10578),0.0637,0.344,0.381,0.0198,0.128
TMX2 (GeneID 51075),0.188,0.221,0.291,0.0242,0.198
SCGB2A2 (GeneID 4250),0.104,0.0744,0.281,0.0287,0.103

Just “ACSL5 mRNA, set 1” (5 entries from above):
ANO2 (GeneID 57101) = 0.213
TIMM50 (GeneID 92609) = 0.126
RFX2 (GeneID 5990) = 0.208
MTMR4 (GeneID 9110) = 0.17
PLA2G15 (GeneID 23659) = 0.139
